The M2OR odorant receptor database
Only a part is listed here, and it is no random draw. Calls are pooled over several reports, among them a noisy single-well screen. The list shows a part of the results.

How the values were obtained:
Details in all cases: stereoisomer not certain
OR5T1 (Homo sapiens) = biological target: T1, OR5T1 (Homo sapiens) (UniProt Q8NG75)
T1 sequence (whole entry): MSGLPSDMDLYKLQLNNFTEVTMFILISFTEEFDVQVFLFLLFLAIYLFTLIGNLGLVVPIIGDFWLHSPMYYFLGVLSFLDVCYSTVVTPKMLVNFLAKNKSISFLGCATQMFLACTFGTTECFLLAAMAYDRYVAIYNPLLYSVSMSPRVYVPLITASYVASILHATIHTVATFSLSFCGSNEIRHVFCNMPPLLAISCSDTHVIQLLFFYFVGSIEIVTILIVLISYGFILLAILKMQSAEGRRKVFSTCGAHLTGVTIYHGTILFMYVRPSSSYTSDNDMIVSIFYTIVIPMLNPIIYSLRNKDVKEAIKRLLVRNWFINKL
How it was run: (§1)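 Whether a receptor–molecule pair is responsive (active) rests on the original authors' judgment that its measured signal was statistically different from baseline. Pairs without that judgment are non-responsive (inactive). Sources used varied assay methods, commonly transient luciferase assays in mammalian cell lines.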

OR5T1 = test system: T2, OR5T1
T2 sequence (whole entry): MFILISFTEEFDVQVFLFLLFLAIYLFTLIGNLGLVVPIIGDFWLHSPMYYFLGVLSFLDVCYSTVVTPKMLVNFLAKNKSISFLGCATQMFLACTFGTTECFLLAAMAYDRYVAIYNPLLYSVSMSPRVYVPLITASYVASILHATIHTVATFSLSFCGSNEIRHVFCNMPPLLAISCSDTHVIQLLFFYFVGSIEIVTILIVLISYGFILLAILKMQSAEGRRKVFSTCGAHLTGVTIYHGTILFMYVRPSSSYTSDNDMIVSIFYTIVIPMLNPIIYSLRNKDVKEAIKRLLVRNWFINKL
How it was run: as §1

OR5T2 [1] = test system: T3, OR5T2
T3 sequence (whole entry): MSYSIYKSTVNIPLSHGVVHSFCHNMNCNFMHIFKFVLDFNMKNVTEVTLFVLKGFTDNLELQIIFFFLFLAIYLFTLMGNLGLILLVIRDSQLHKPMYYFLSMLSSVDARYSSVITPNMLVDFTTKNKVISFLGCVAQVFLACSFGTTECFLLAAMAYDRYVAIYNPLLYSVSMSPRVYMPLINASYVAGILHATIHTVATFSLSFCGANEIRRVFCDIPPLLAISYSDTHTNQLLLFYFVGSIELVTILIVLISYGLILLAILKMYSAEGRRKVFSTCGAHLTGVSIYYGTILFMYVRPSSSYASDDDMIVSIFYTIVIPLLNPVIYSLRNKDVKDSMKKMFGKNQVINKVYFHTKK
How it was run: as §1

OR5T2 [2] = test system: T4, OR5T2; remark: listed apart in the source
T4 sequence (whole entry): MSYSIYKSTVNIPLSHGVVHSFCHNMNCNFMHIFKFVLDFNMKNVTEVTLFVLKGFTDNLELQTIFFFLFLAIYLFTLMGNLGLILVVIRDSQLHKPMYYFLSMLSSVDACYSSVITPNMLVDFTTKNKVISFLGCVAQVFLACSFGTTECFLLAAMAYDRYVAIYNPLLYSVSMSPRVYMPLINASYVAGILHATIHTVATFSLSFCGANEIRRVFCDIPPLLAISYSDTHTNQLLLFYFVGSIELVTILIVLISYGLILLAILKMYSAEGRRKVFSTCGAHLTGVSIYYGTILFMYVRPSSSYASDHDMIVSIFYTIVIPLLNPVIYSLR
How it was run: as §1

OR5T3 = test system: T5, OR5T3
T5 sequence (whole entry): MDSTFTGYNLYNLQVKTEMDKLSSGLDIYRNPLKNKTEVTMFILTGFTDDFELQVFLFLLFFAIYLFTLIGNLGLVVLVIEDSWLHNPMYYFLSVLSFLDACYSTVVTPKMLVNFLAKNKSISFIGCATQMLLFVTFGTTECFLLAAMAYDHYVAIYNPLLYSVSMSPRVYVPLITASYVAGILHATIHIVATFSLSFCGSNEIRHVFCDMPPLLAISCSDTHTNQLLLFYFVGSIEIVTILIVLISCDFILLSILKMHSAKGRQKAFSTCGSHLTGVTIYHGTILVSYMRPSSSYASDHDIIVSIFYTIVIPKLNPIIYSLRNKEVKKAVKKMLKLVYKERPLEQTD
How it was run: as §1

OR5V1 (Homo sapiens) = biological target: T6, OR5V1 (Homo sapiens) (UniProt Q9UGF6)
T6 sequence (whole entry): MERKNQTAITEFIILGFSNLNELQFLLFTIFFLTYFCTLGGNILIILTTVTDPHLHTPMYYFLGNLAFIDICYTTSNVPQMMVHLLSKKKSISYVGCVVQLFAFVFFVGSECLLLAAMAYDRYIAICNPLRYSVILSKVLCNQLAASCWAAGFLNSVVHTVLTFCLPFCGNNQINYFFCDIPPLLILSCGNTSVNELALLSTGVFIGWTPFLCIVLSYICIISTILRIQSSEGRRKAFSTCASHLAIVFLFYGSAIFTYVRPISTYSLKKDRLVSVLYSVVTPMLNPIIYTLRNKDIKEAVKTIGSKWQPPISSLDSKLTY
How it was run: as §1

OR5W2 = test system: T7, OR5W2
T7 sequence (whole entry): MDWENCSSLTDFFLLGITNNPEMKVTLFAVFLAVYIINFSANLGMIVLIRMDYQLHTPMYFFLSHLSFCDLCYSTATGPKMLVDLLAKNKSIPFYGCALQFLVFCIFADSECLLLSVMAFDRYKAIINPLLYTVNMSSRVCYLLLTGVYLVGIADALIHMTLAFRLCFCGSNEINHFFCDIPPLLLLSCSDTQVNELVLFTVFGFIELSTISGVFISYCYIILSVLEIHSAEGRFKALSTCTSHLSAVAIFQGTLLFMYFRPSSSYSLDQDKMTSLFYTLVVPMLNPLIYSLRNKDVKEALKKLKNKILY
How it was run: as §1

OR6A2 (Homo sapiens) = biological target: T8, OR6A2 (Homo sapiens) (UniProt O95222)
T8 sequence (whole entry): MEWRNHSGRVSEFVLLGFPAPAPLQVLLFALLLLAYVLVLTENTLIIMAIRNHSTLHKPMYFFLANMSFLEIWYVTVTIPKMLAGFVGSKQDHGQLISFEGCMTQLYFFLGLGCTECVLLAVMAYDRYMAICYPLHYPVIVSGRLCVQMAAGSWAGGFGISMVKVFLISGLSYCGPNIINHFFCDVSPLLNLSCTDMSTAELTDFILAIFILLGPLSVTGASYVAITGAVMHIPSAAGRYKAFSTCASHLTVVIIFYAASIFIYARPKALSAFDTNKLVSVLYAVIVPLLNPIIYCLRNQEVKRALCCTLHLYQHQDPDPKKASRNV
How it was run: as §1
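Note: active if original authors judged signal statistically different from baseline.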

Compound | odorant receptor agonist call (OR5T1 (Homo sapiens)) | odorant receptor agonist call (OR5T1) | odorant receptor agonist call (OR5T2 [1]) | odorant receptor agonist call (OR5T2 [2]) | odorant receptor agonist call (OR5T3) | odorant receptor agonist call (OR5V1 (Homo sapiens)) | odorant receptor agonist call (OR5W2) | odorant receptor agonist call (OR6A2 (Homo sapiens))
CCCC(=O)O | inactive | inactive | inactive | inactive | inactive | inactive | inactive | inactive
CC(C)CC(=O)O | inactive | inactive | inactive | inactive | inactive | inactive | inactive | inactive
CCCCCCCC=CC=O | inactive | active | inactive | inactive | inactive | inactive | active | inactive
O=C1CCCCCCCCCCCC(=O)OCCO1 | inactive | inactive | inactive | inactive | inactive | inactive | inactive | inactive
C=CCc1ccc(OC(C)=O)c(OC)c1 | inactive | inactive | inactive | inactive | inactive | inactive | inactive | inactive
COC(=O)c1ccccc1O | inactive | inactive | inactive | inactive | inactive | inactive | inactive | inactive
COc1ccccc1O | inactive | inactive | inactive | inactive | inactive | inactive | inactive | inactive
CCC1(O)C2(C)CCC(C2)C1(C)C (stereo not given) | inactive | inactive | inactive | inactive | inactive | inactive | inactive | inactive
O=C1CCCCCCCCCCCCCCO1 | inactive | inactive | inactive | inactive | inactive | inactive | inactive | inactive
CC(=O)OC1CC2CCC1(C)C2(C)C (stereo not given) | inactive | inactive | inactive | inactive | inactive | inactive | inactive | inactive
CC1=CCC(C(C)(C)O)CC1 (stereo not given) | inactive | inactive | inactive | inactive | inactive | inactive | inactive | inactive
CCCCCOC(C)=O | inactive | inactive | inactive | inactive | inactive | inactive | inactive | inactive
CCCCCCCCCC=O | inactive | inactive | inactive | inactive | inactive | inactive | inactive | inactive
CC(=O)OCC=C(C)CCC=C(C)C | inactive | inactive | inactive | inactive | inactive | inactive | inactive | inactive
C=CC(C)(O)CCC=C(C)C (stereo not given) | inactive | inactive | inactive | inactive | inactive | inactive | inactive | inactive
CC(C)CCC(=O)O | inactive | inactive | inactive | inactive | inactive | inactive | inactive | inactive
CCCCCCOC(=O)CCC | inactive | inactive | inactive | inactive | inactive | inactive | inactive | inactive
CC1CCC(C(C)C)C(O)C1 (stereo not given) | inactive | inactive | inactive | inactive | inactive | inactive | active | inactive
c1cnccn1 | inactive | inactive | inactive | inactive | inactive | inactive | inactive | inactive
CC=Cc1ccc(O)c(OC)c1 | inactive | inactive | inactive | inactive | inactive | inactive | inactive | active
CC(C)C(=O)O | inactive | inactive | inactive | inactive | inactive | inactive | inactive | inactive
CC12CCC(CC1)C(C)(C)O2 | inactive | inactive | inactive | inactive | inactive | inactive | inactive | inactive
CCCCCCCOC(C)=O | inactive | inactive | inactive | inactive | inactive | inactive | inactive | inactive
CCCCCC(=O)O | inactive | inactive | inactive | inactive | inactive | inactive | inactive | inactive
O=C1CCCCC1 | inactive | inactive | inactive | inactive | inactive | inactive | inactive | inactive

Retrieved one by one from the list above (2):
Compound | odorant receptor agonist call (OR5T1 (Homo sapiens)) | odorant receptor agonist call (OR5T1) | odorant receptor agonist call (OR5T2 [1]) | odorant receptor agonist call (OR5T2 [2]) | odorant receptor agonist call (OR5T3) | odorant receptor agonist call (OR5V1 (Homo sapiens)) | odorant receptor agonist call (OR5W2) | odorant receptor agonist call (OR6A2 (Homo sapiens))
C=CC(C)(O)CCC=C(C)C (stereo not given) | inactive | inactive | inactive | inactive | inactive | inactive | inactive | inactive
CC(C)CC(=O)O | inactive | inactive | inactive | inactive | inactive | inactive | inactive | inactive
